The values below come from publication PMC8336837, “Structure of the human C9orf72-SMCR8 complex reveals a multivalent protein interaction architecture” (PLoS Biology, 2021).

The target in the experiment is T1, SMCR8 (full-length) (human, UniProt Q8TEV9 1-937).
T1 construct: SMCR8, human, open reading frame amplified from a human cDNA library; residues 1-937; also called SMCR8 Fl; source: Sf-9 insect cells, co-expressed with C9orf72, purified (Strep-Tactin, size-exclusion chromatography)
T1 sequence (looked up): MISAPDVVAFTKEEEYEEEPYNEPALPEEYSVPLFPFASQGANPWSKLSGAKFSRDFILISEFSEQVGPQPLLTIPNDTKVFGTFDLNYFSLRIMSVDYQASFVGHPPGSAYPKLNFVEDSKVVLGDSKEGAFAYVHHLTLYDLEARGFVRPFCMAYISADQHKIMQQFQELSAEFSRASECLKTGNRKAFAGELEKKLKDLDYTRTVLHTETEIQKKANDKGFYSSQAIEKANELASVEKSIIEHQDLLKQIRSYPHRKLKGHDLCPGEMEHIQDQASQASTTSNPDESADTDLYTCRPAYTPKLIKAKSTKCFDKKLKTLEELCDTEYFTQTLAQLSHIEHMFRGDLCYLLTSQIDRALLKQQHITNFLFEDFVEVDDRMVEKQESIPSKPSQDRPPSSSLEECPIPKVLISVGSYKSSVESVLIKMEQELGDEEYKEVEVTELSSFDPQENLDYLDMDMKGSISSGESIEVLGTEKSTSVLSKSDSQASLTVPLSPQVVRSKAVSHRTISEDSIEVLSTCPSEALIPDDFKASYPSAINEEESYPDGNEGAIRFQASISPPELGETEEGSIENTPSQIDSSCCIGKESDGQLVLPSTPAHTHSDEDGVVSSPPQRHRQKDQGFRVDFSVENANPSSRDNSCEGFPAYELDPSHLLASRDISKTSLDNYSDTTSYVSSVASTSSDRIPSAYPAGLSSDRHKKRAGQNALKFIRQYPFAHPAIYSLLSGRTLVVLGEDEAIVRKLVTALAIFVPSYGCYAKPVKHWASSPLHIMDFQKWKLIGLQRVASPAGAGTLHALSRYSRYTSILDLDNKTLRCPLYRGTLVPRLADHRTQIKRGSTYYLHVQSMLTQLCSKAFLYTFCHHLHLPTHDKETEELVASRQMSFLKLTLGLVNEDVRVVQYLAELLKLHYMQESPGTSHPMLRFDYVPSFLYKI
Description: SEC; C9orf72 and SMCR8 co-expressed in Sf-9 cells, purified together on Strep-Tactin beads and Superose 6 10/300 GL. On the technique in general: Size exclusion chromatography separates by hydrodynamic size, large species first.

These are yes or no findings as the source states them, for the method shown. Some binding calls cover weakened binding; strength is not graded here.

B1: C9orf72 (full-length) (protein, UniProt Q96LT7 1-481)
chain: MSTLCPPPSPAVAKTEIALSGKSPLLAATFAYWDNILGPRVRHIWAPKTEQVLLSDGEITFLANHTLNGEILRNAESGAIDVKFFVLSEKGVIIVSLIFDGNWNGDRSTYGLSIILPQTELSFYLPLHRVCVDRLTHIIRKGRIWMHKERQENVQKIILEGTERMEDQGQSIIPMLTGEVIPVMELLSSMKSHSVPEEIDIADTVLNDDDIGDSCHEGFLLNAISSHLQTCGCSVVVGSSAEKVNKIVRTLCLFLTPAERKCSRLCEAESSFKYESGLFVQGLLKDSTGSFVLPFRQVMYAPYPTTHIDVDVNTVKQMPPCHEHIYNQRRYMRSELTAFWRATSEEDMAQDTIIYTDESFTPDLNIFQDVLHRDTLVKAFLDQVFQLKPGLSLRSTFLAQFLLVLHRKALTLIKYIEDDTQKGKKPFKSLRNLKIDLDLTAEGDLNIIMALAEKIKPGLHSFIFGRPFYTSVQERDVLMTF
B1: the binding entry is listed as “binds”.
